# In the supplement of paper PMC8728848:
# The other results are listed elsewhere or left out.
# B1: PX9961K-bvu-480-28-480 (Bacteroides vulgatus) (protein)
# chain: NKIPTTMAFRTVTDVDNAVNGLYDLMSGSGYYGAAMFAYGDMKGDDMQSSEESGVCNTCYMFNHRPNSLNAGSLWGRPFYILREAWNILNAIAEGKIESGDEKKLNALKGETMAVIALCQFDLTRCFGYPYTKDKGASLGAPLIDHLVGTYENPPRSTVAQAYDFIIETLEEAVTLMSEEKNNGRMNKYAARALLARIYLYHDDNRKAFDLADQLIKDADTSGSYALYPHEKYVAAWSVEAKFGSESFFEIANSVDDTPGRDSWGYLLNWYGYQKGFVTQKYAEQMLADPGDVRGHLLEENKYAGKTVWWLYKLRGTDLKTAPLECNNVVLRLSEVYLIAAEAGCKLGGDAAVQGLGYLNEIVKRGNPDNEVTMADYTLDRVLDERSKELVGEGHRFFDLLRNGKTIVRKGGYHLPSVDEEVDWDFYKCVLPIPEDQFIFSPEMEQNPGYPKN
# Assays:
# Assay in all cases: glycan array binding signal (z-score within array); higher = stronger binding
# Settings in all cases: glycan notation: IUPAC condensed, linker removed
# [1] = target: Gal(b1-3)GlcNAc(b1-2)Man(a1-3)[Gal(b1-3)GlcNAc(b1-2)Man(a1-6)]Man(b1-4)GlcNAc(b1-4)[Fuc(a1-6)]GlcNAc
# Method in brief: (§1)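 The binding signal is a Z-score computed within each array and averaged over linkers. Arrays of the same protein sequence at different concentrations or buffers were also averaged together. Data originate from 3228 arrays in the Consortium for Functional Glycomics database, kept only where the protein sequence was available.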
# [2] = target: Gal(b1-3)GlcNAc(b1-2)Man(a1-3)[GlcNAc(b1-4)][Gal(b1-3)GlcNAc(b1-2)Man(a1-6)]Man(b1-4)GlcNAc(b1-4)GlcNAc
# Method in brief: as §1
# [3] = target: Gal(b1-3)GlcNAc(b1-2)[Gal(b1-3)GlcNAc(b1-6)]Man(a1-6)[Gal(b1-3)GlcNAc(b1-2)Man(a1-3)]Man(b1-4)GlcNAc(b1-4)GlcNAc
# Method in brief: as §1
# [4] = target: Gal(b1-3)GlcNAc(b1-3)Gal(b1-3)GlcNAc
# Method in brief: as §1
# [5] = target: Gal(b1-3)GlcNAc(b1-3)Gal(b1-4)Glc
# Method in brief: as §1
# [6] = target: Gal(b1-3)GlcNAc(b1-3)Gal(b1-4)GlcNAc
# Method in brief: as §1
# [7] = target: Gal(b1-3)GlcNAc(b1-3)Gal(b1-4)GlcNAc(b1-2)Man(a1-3)[Gal(b1-3)GlcNAc(b1-3)Gal(b1-4)GlcNAc(b1-2)Man(a1-6)]Man(b1-4)GlcNAc(b1-4)GlcNAc
# Method in brief: as §1
# [8] = target: Gal(b1-3)GlcNAc(b1-3)Gal(b1-4)GlcNAc(b1-2)[Gal(b1-3)GlcNAc(b1-3)Gal(b1-4)GlcNAc(b1-6)]Man(a1-6)[Gal(b1-3)GlcNAc(b1-3)Gal(b1-4)GlcNAc(b1-2)Man(a1-3)]Man(b1-4)GlcNAc(b1-4)[Fuc(a1-6)]GlcNAc
# Method in brief: as §1
# [9] = target: Gal(b1-3)GlcNAc(b1-3)Gal(b1-4)GlcNAc(b1-3)Gal(b1-4)GlcNAc(b1-2)[Gal(b1-3)GlcNAc(b1-3)Gal(b1-4)GlcNAc(b1-3)Gal(b1-4)GlcNAc(b1-6)]Man(a1-6)[Gal(b1-3)GlcNAc(b1-3)Gal(b1-4)GlcNAc(b1-3)Gal(b1-4)GlcNAc(b1-2)Man(a1-3)]Man(b1-4)GlcNAc(b1-4)[Fuc(a1-6)]GlcNAc
# Method in brief: as §1
# [10] = target: Gal(b1-3)GlcNAc(b1-3)Gal(b1-4)GlcNAc(b1-6)[Gal(b1-3)GlcNAc(b1-3)]Gal(b1-4)Glc
# Method in brief: as §1
# [11] = target: Gal(b1-3)GlcNAc(b1-3)Gal(b1-4)[Fuc(a1-3)]GlcNAc
# Method in brief: as §1
# [12] = target: Gal(b1-3)GlcNAc(b1-3)Gal(b1-4)[Fuc(a1-3)]GlcNAc(b1-6)[Gal(b1-3)GlcNAc(b1-3)]Gal(b1-4)Glc
# Method in brief: as §1
# [13] = target: Gal(b1-3)GlcNAc(b1-3)GalNAc
# Method in brief: as §1
# [14] = target: Gal(b1-3)GlcNAc(b1-6)Gal(b1-4)GlcNAc
# Method in brief: as §1
# [15] = target: Gal(b1-3)GlcNAc(b1-6)GalNAc
# Method in brief: as §1
# [16] = target: Gal(b1-3)GlcNAc(b1-6)[Gal(b1-3)]GalNAc
# Method in brief: as §1
# Gal(b1-3)GlcNAc6S = target: Gal(b1-3)GlcNAc6S
# Method in brief: as §1
# [17] = target: Gal(b1-3)[Fuc(a1-4)]GlcNAc
# Method in brief: as §1
# [18] = target: Gal(b1-3)[Fuc(a1-4)]GlcNAc(b1-2)Man
# Method in brief: as §1
# [19] = target: Gal(b1-3)[Fuc(a1-4)]GlcNAc(b1-2)Man(a1-3)[Gal(b1-3)[Fuc(a1-4)]GlcNAc(b1-2)Man(a1-6)]Man(b1-4)GlcNAc(b1-4)[Fuc(a1-6)]GlcNAc
# Method in brief: as §1
# [20] = target: Gal(b1-3)[Fuc(a1-4)]GlcNAc(b1-3)Gal(b1-3)[Fuc(a1-4)]GlcNAc
# Method in brief: as §1
# [21] = target: Gal(b1-3)[Fuc(a1-4)]GlcNAc(b1-3)Gal(b1-4)[Fuc(a1-3)]GlcNAc
# Method in brief: as §1
# [22] = target: Gal(b1-3)[Fuc(a1-4)]GlcNAc(b1-6)GalNAc
# Method in brief: as §1
# [23] = target: Gal(b1-3)[GlcNAc(b1-6)]GalNAc
# Method in brief: as §1
# [24] = target: Gal(b1-3)[Neu5Ac(a2-6)]GalNAc
# Method in brief: as §1
# [25] = target: Gal(b1-3)[Neu5Ac(a2-6)]GlcNAc(b1-4)Gal(b1-4)Glc
# Method in brief: as §1
# [26] = target: Gal(b1-3)[Neu5Ac(b2-6)]GalNAc
# Method in brief: as §1
# Gal(b1-4)Gal = target: Gal(b1-4)Gal
# Method in brief: as §1
# [27] = target: Gal(b1-4)GalNAc(a1-3)[Fuc(a1-2)]Gal(b1-4)GlcNAc
# Method in brief: as §1
# [28] = target: Gal(b1-4)GalNAc(b1-3)[Fuc(a1-2)]Gal(b1-4)GlcNAc
# Method in brief: as §1
# Gal(b1-4)Glc = target: Gal(b1-4)Glc
# Method in brief: as §1
# Gal(b1-4)Glc6S = target: Gal(b1-4)Glc6S
# Method in brief: as §1
# Gal(b1-4)GlcNAc = target: Gal(b1-4)GlcNAc
# Method in brief: as §1
# [29] = target: Gal(b1-4)GlcNAc(a1-6)Gal(b1-4)GlcNAc
# Method in brief: as §1
# Gal(b1-4)GlcNAc(b1-2)Man = target: Gal(b1-4)GlcNAc(b1-2)Man
# Method in brief: as §1
# [30] = target: Gal(b1-4)GlcNAc(b1-2)Man(a1-3)Man(b1-4)GlcNAc(b1-4)GlcNAc
# Method in brief: as §1
# [31] = target: Gal(b1-4)GlcNAc(b1-2)Man(a1-3)[Gal(b1-4)GlcNAc(b1-2)Man(a1-6)]Man(b1-4)GlcNAc(b1-4)GlcNAc
# Method in brief: as §1
binder,measurement,setting,value
B1,glycan array binding signal (z-score),[1],-0.506
same,glycan array binding signal (z-score),[2],0.411
same,glycan array binding signal (z-score),[3],0.78
same,glycan array binding signal (z-score),[4],-0.178
same,glycan array binding signal (z-score),[5],0.505
same,glycan array binding signal (z-score),[6],-0.427
same,glycan array binding signal (z-score),[7],0.157
same,glycan array binding signal (z-score),[8],1.17
same,glycan array binding signal (z-score),[9],0.451
same,glycan array binding signal (z-score),[10],-0.362
same,glycan array binding signal (z-score),[11],-0.351
same,glycan array binding signal (z-score),[12],-0.479
same,glycan array binding signal (z-score),[13],-0.178
same,glycan array binding signal (z-score),[14],-0.025
same,glycan array binding signal (z-score),[15],-1.11
same,glycan array binding signal (z-score),[16],-0.641
same,glycan array binding signal (z-score),Gal(b1-3)GlcNAc6S,-1.05
same,glycan array binding signal (z-score),[17],0.475
same,glycan array binding signal (z-score),[18],0.872
same,glycan array binding signal (z-score),[19],0.986
same,glycan array binding signal (z-score),[20],-0.658
same,glycan array binding signal (z-score),[21],0.065
same,glycan array binding signal (z-score),[22],0.058
same,glycan array binding signal (z-score),[23],0.036
same,glycan array binding signal (z-score),[24],-0.758
same,glycan array binding signal (z-score),[25],-0.858
same,glycan array binding signal (z-score),[26],-0.345
same,glycan array binding signal (z-score),Gal(b1-4)Gal,-0.623
same,glycan array binding signal (z-score),[27],-0.623
same,glycan array binding signal (z-score),[28],-0.265
same,glycan array binding signal (z-score),Gal(b1-4)Glc,-0.177
same,glycan array binding signal (z-score),Gal(b1-4)Glc6S,0.867
same,glycan array binding signal (z-score),Gal(b1-4)GlcNAc,-0.016
same,glycan array binding signal (z-score),[29],-0.426
same,glycan array binding signal (z-score),Gal(b1-4)GlcNAc(b1-2)Man,-0.364
same,glycan array binding signal (z-score),[30],-0.19
same,glycan array binding signal (z-score),[31],-0.34

# Laid out differently: entries from further up.
binder	measurement	setting	value
B1	glycan array binding signal (z-score)	[26]	-0.345
same	glycan array binding signal (z-score)	Gal(b1-4)Gal	-0.623
same	glycan array binding signal (z-score)	[27]	-0.623
